Source: the supplement of paper PMC10735217
The list shows a part of the results. This data set is noisy: repeats of one test often differ as much as different tests do.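 The human kidney-derived cells carry a stably integrated construct of eight TEAD-binding elements driving luciferase, read by luminescence in a drug-repurposing library screen. A compound counts as a hit when its signal is more than five robust Z scores above the plate mean.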

System: HEK293A TEAD-LUC reporter
Assay: TEAD-luciferase reporter activity (YAP activation), robust Z score vs plate; higher = stronger YAP/TEAD activation
Conditions: 24 h

Row | Compound | TEAD-luciferase reporter activity (compound concentration: 200 nM) | TEAD-luciferase reporter activity (compound concentration: 2 uM) | TEAD-luciferase reporter activity (compound concentration: 10 uM)
1 | CC(C)(C)c1ccc2c(c1)CC[C@H]2NC(=O)Nc1cccc2[nH]ncc12 | inactive: -0.63 | inactive: -1.08 | inactive: -0.483
2 | CC(C)(C)NCC(O)c1ccc(O)c(NC(N)=O)c1 (stereo not given) [carbuterol] | inactive: -0.851 | inactive: -0.261 | inactive: -0.699
3 | CC(C)(Oc1ccc(Cl)cc1)C(=O)O [moroxybrate] | inactive: -0.732 | inactive: 1.09 | inactive: -1.14
4 | CCn1cc(C(=O)NCCCO)c(=O)c2ccccc21 | active: 7.46 | inactive: 1.44 | inactive: 0.102
5 | CC(=O)N1CCC2(CC1)CN(C(=O)C1CCN(C)CC1)Cc1ccccc1O2 | inactive: -1.17 | – | inactive: 1.39
6 | Clc1cnn(CCCCN2CCN(c3ncccn3)CC2)c1 | inactive: -0.235 | inactive: -0.268 | inactive: 4.42
7 | N#Cc1cccc(CN2CCCC23Cc2ccccc2CNC3=O)c1 (stereo not given) | inactive: -1.61 | – | inactive: -1.35
8 | CCCCOC(=O)[C@@H](O)CN(CC(C)C)C(=O)N[C@@H](Cc1ccc2ccccc2c1)C(=O)O | inactive: 0.369 | inactive: -0.926 | inactive: -0.0821
9 | N=C(N)NCCC[C@@H](NC(=O)[C@@H](Cc1ccc(-c2ccccc2)cc1)NC(=O)[C@H](N)CCC(=O)O)C(=O)O | inactive: -0.443 | inactive: -0.634 | inactive: 1.49
10 | Cc1ccc(C(=O)CC(c2ccccc2)S(=O)(=O)c2ccccc2)cc1 (stereo not given) | inactive: -1.13 | inactive: 1.27 | inactive: 1.04
11 | O=C1N(CCN2CCC3(CC2)OCCO3)CCN1c1cc(Cl)cc(Cl)c1 | inactive: 0.72 | inactive: -0.352 | inactive: -0.0468
12 | O=C(O)CCCCCCNC(=O)C(CS)Cc1ccccc1 (stereo not given) | inactive: -0.959 | inactive: -0.411 | inactive: -1.29
13 | C[C@]12CCC(=O)C=C1CC[C@@H]1[C@@H]2[C@@H](O)C[C@@]2(C)[C@H]1CC[C@]2(O)C(=O)CO | inactive: 0.155 | – | inactive: 4.3
14 | CCCCCCCC/C=C\CCCCCCCC(=O)OCC(O)CO (stereo not given) [2,3-Dihydroxypropyl oleate] | inactive: 1.21 | inactive: -0.448 | inactive: -0.93
15 | O=C(c1ccccc1)c1ccc2n1CCC2C(=O)OCCCCO[N+](=O)[O-] (stereo not given) | inactive: -0.809 | inactive: 0.267 | inactive: -0.528
16 | Cc1ccc2c(c1)c1c(n2CCc2ccncc2)CCN(C)C1 | inactive: -0.121 | inactive: -1.65 | inactive: 1.82
17 | N=C(N)NCCC[C@H](NC(=O)[C@@H]1CCCN1C(=O)[C@H](N)Cc1ccccc1)C(=O)CCl | inactive: -1.82 | inactive: -1.43 | inactive: -1.55
18 | COC(=O)C1=C(C)NC(C)=C(C(=O)OC)C1c1cc([N+](=O)[O-])ccc1OCCCCNC[C@H](O)COc1ccccc1 | inactive: -0.768 | inactive: -1.3 | inactive: -1.06
19 | COc1ccc(NC(=O)Nc2ccc(F)cc2F)cc1-c1c(Br)cnn1C [nelotanserin] | inactive: 0.501 | inactive: -1.67 | inactive: -1.28
20 | CO[C@@H](Cc1ccc(NC(C)=O)cc1)C(=O)O | inactive: -0.881 | inactive: -1.34 | inactive: -0.034
21 | CN(/N=N/N(C)c1ccccc1)c1ccccc1 | inactive: -0.736 | inactive: 0.997 | inactive: 4.7
22 | CC(C)=CCOc1cc(NC(=O)c2ccccn2)ccc1Cl | inactive: -1 | inactive: -1.76 | inactive: 0.755
23 | COc1c(C(=O)Nc2cc(C(F)(F)F)ccc2Oc2ccc(Cl)cc2C)ccc2ccccc12 | inactive: 0.231 | inactive: -0.157 | inactive: 1.6
24 | COc1cc2ncnc(Oc3cccc(NC(=O)Nc4cc(C(C)(C)C(F)(F)F)on4)c3)c2cc1OC | inactive: 1.94 | inactive: -1.73 | inactive: 0.84
25 | COc1ccccc1-c1ccc(CN2CCCCC2C(=O)NCc2ccc3c(c2)OCO3)cc1 (stereo not given) | active: 7.2 | – | inactive: 1.89
26 | CO[C@H]1COCC[C@H]1N[C@@H]1CC[C@@](C(=O)N2C[C@@H]3C[C@H]2CN3c2cc(C(F)(F)F)ncn2)(C(C)C)C1 | inactive: 1.28 | inactive: -0.399 | inactive: 0.34
27 | CCS(=O)(=O)c1ccc(/C=C(\C)c2ccc3c(c2)C(C)(C)CCC3(C)C)cc1 [Etarotene] | inactive: -0.249 | inactive: -1.06 | inactive: 2.32
28 | O=C(Cc1cccs1)N[C@@H]1C(=O)N2C(C(=O)[O-])=C(C[n+]3ccccc3)CS[C@H]12 [Cefaloridine] | inactive: 0.129 | inactive: 2 | inactive: 3.81

7 of these compounds in another layout:
Row,Compound,TEAD-luciferase reporter activity (compound concentration: 200 nM),TEAD-luciferase reporter activity (compound concentration: 2 uM),TEAD-luciferase reporter activity (compound concentration: 10 uM)
1,CC(C)(C)c1ccc2c(c1)CC[C@H]2NC(=O)Nc1cccc2[nH]ncc12,inactive: -0.63,inactive: -1.08,inactive: -0.483
3,CC(C)(Oc1ccc(Cl)cc1)C(=O)O [moroxybrate],inactive: -0.732,inactive: 1.09,inactive: -1.14
10,Cc1ccc(C(=O)CC(c2ccccc2)S(=O)(=O)c2ccccc2)cc1 (stereo not given),inactive: -1.13,inactive: 1.27,inactive: 1.04
14,"CCCCCCCC/C=C\CCCCCCCC(=O)OCC(O)CO (stereo not given) [2,3-Dihydroxypropyl oleate]",inactive: 1.21,inactive: -0.448,inactive: -0.93
16,Cc1ccc2c(c1)c1c(n2CCc2ccncc2)CCN(C)C1,inactive: -0.121,inactive: -1.65,inactive: 1.82
21,CN(/N=N/N(C)c1ccccc1)c1ccccc1,inactive: -0.736,inactive: 0.997,inactive: 4.7
27,CCS(=O)(=O)c1ccc(/C=C(\C)c2ccc3c(c2)C(C)(C)CCC3(C)C)cc1 [Etarotene],inactive: -0.249,inactive: -1.06,inactive: 2.32
